Earlier results on 1 compound are cited in patent publication US20220273587A1 (priority 2019, published 2022).

Molecules are shown by their SMILES.

For the data set the following is noted: lidocaine alkalized and combined with a heparinoid, pH above 7; Parsons 2015.

For `CCN(CC)CC(=O)Nc1c(C)cccc1C` [lidocaine], the “increase of lidocaine absorption into the bladder wall” value is recorded as “approximately twofold”.
